# Library screening results

Chains of the proteins cited; added tags and fusions are not shown.
UniProt E9BF75, entry or part of it: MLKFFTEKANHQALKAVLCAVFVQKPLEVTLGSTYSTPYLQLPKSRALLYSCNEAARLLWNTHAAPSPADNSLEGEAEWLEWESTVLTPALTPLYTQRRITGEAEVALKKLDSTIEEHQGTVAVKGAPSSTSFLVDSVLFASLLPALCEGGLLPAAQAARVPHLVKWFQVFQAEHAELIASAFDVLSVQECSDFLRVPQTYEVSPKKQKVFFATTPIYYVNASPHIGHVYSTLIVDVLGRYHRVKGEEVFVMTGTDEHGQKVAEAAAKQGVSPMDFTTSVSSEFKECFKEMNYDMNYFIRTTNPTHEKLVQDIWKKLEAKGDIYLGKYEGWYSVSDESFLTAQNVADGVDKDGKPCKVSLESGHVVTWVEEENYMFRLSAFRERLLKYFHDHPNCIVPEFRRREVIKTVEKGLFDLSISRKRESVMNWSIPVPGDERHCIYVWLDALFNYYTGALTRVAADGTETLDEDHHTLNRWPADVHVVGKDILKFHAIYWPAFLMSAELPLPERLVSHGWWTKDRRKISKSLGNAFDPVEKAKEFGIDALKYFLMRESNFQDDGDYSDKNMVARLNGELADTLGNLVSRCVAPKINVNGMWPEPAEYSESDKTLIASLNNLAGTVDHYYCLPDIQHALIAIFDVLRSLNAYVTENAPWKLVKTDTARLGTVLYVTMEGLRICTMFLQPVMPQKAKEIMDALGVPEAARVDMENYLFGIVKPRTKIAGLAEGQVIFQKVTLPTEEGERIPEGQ

Source: ChEMBL document CHEMBL3988442, “University of Dundee, Small-Polar-MMV Screening Library” (2021).

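Methionyl-tRNA synthetase (putative), Leishmania donovani (UniProt E9BF75). Primary screen of methionyl-tRNA synthetase; the read-out is not stated. The test concentration is not given. The values are filed as inhibition. Size under these conditions: about 68,000 compounds, about 24 of them at 50% or above in at least one test.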

All values are in %. The record does not define 0% and 100%; most values in the screen are far below 50% and negative numbers occur (in some assays of this library far below -100). This is an unselected part of the compounds tested.

| SMILES | Inhibition |
|---|---|
| `Cc1cc(=O)n(CC(=O)Nc2ccc(C(N)=O)cc2)nc1C` | 7.609 |
| `Cc1ccc(C)c(Oc2ccc(CNC(=O)C3CCS(=O)(=O)C3)cn2)c1` (centres unmarked) | 9.699 |
| `NC(=O)C1CCN(C(=O)c2ccn(-c3ccc(F)cc3)n2)C1` (centres unmarked) | 11.75 |
| `CC(Nc1ccc(CCN2CCOCC2)cc1)C(=O)N(C)CCC#N` (centres unmarked) | 0.2762 |
| `Cc1nc(C(=O)N2CCN(S(C)(=O)=O)[C@@H]3CS(=O)(=O)C[C@@H]32)cs1` | 3.896 |
| `Cc1ccc(C(C(=O)N2CCN(C(=O)c3ccc[nH]3)CC2)N(C)C)cc1` (centres unmarked) | 12.1 |
| `COc1ccccc1OC1CN(C(=O)Cc2c(C)nc(N)nc2C)C1` | 5.882 |
| `CC(=O)c1c(F)cccc1NCC(O)C(C)(C)C` (centres unmarked) | 12.83 |
| `CC(C)(C)n1nnnc1CN(CCc1ccccc1)Cc1ccccc1` | 25.95 |
| `Cn1cc(C(=O)N2CCOc3cc(F)ccc32)ccc1=O` | 6.15 |
| `Cc1cc(CN(C)CCN(C)c2ccccc2)no1` | 5.955 |
| `N#Cc1cccc(OCCN2CCCC2C(=O)N2CCSCC2)c1` (centres unmarked) | 21.55 |
| `Cc1cccnc1CNC(=O)N(CCCO)C1CCc2ccccc21` (centres unmarked) | 13.86 |
| `NC(=O)COc1cccc(Cn2cccn2)c1` | 16.48 |
| `CC(C)c1nnc2ccc(N3CCC(C(=O)Nc4nccs4)CC3)nn12` | 14.52 |
| `CC1(C2CCN(CC(N)=O)CC2)CN(Cc2ccccc2)C(=O)O1` (centres unmarked) | 0.6452 |
| `CC(C)(CNC(=O)OC(C)(C)C)NC(=O)C1CC(=O)N(C2CC2)C1` (centres unmarked) | 3.346 |
| `CN(C)Cc1cnc(C2CCN(C(=O)c3ccccc3F)C2)[nH]1` (centres unmarked) | 13.44 |
| `CNc1cc(C)nc(C2COCCN2Cc2csc(C)n2)n1` (centres unmarked) | 11.01 |
| `Cc1cnn(CCC(=O)N2CCCC(c3nc(C)no3)C2)c1` (centres unmarked) | 1.961 |
| `CC(=O)c1sc(C(NC(=O)c2ccccc2)C2CC2)nc1C` (centres unmarked) | 12.54 |
| `CC(C)Cc1noc(CN2CCN(CCOc3ccc(Cl)cc3)CC2)n1` | 16.33 |
| `CN(C)C(=O)c1n[nH]c2c1CN(Cc1ccccn1)CC2` | 13.33 |
| `Cc1nnc(NC(=O)CN2CCc3nn(C)c(=O)cc3C2)s1` | 2.273 |
| `Cc1noc(C)c1CNCc1ccccc1N(C)C1CCN(C)CC1` | 3.548 |
| `O=C(NCCn1ccc(-c2ccncc2)n1)c1ccc2c(c1)OCO2` | 2.586 |
| `COc1ccc2[nH]cc(C(=O)N3C[C@@H](O)[C@H](N4CCCC4)C3)c2c1` | 9.494 |
| `CCN(CCNC(=O)c1cccnc1OCCOC)C1CC1` | 17.66 |
| `COCCc1ncc(CN2CCCC(C(=O)c3ccccc3)C2)cn1` (centres unmarked) | 14.93 |
| `NC(=O)C(NC(=O)c1ccc(NC2CC2)nc1)c1ccccc1` (centres unmarked) | 12.09 |
| `Cc1nc(C)n(CC2CCCN(CCC(=O)Nc3cc(C)on3)C2)n1` (centres unmarked) | 9.687 |
| `CC/C=C(/C)C(=O)NCc1ccnc(OC)c1` | 14.09 |
| `COC(=O)CCC(=O)N1CCCC2(CCCN2Cc2cccc(F)c2)C1` (centres unmarked) | 11.95 |
| `O=C(c1csc(-c2ccco2)n1)N1CCOc2ncccc21` | 2.527 |
| `CC(C)c1cc(C(=O)N2CCN(Cc3ccco3)CC2)n[nH]1` | 2.847 |
| `CN1CCN(Cc2nnc(C3CCN(S(C)(=O)=O)CC3)n2C)CC1` | 11.54 |
| `O=C(c1cn(CCN2CCCCC2)nn1)N1CCCCO1` | 5.128 |
| `COCCNC(=O)c1cccnc1Sc1cc(OC)ccc1OC` | 3.611 |
| `O=c1c2cnc(N3CCCCC3)nc2ccn1-c1ccccc1F` | 2.338 |
| `NS(=O)(=O)c1cccnc1Nc1c(Cl)cccc1Cl` | 3.684 |
| `O=C1CCC2(CCCN(C(=O)c3cccs3)C2)N1` (centres unmarked) | 6.667 |
| `Cc1nc(CNCC2CCCN2c2cccnn2)no1` (centres unmarked) | 18.06 |
| `CC(=O)Nc1nc(C(=O)NCCOc2ccccc2)cs1` | 11.71 |
| `Cc1nnc2n1CCN(Cc1csc(COc3ccccc3)n1)C2` | 23.89 |
| `CN(C)c1cc2c(nn1)CCN(C(=O)C1CCc3ccccc31)C2` (centres unmarked) | 1.408 |
| `CC(=O)N1C[C@H](NC(=O)c2ccnc(N)c2)[C@@H](C(C)C)C1` | 5.389 |
| `CCN1CC2(CCC1=O)CCN(CCOc1ccc(F)cc1)CC2` | 12.63 |
| `CCCC(=O)N1CCC(Nc2ncc(Br)cn2)CC1` | 9.926 |
| `Cc1nc2c(c(Nc3ccccn3)n1)CN(S(C)(=O)=O)CC2` | -1.05 |
| `Cc1ccc(C(=O)N2C[C@@H]3CCCO[C@@H]3[C@H](N3CCOCC3)C2)cn1` | 15.57 |
| `CCN1CCC2(CC1)OCCN2C(=O)c1cc(Cl)c(OC)c(Cl)c1` | 3.359 |

Repeated from the top, 3 entries:

SMILES	Inhibition
Cc1cc(=O)n(CC(=O)Nc2ccc(C(N)=O)cc2)nc1C	7.609
Cc1ccc(C)c(Oc2ccc(CNC(=O)C3CCS(=O)(=O)C3)cn2)c1 (centres unmarked)	9.699
NC(=O)C1CCN(C(=O)c2ccn(-c3ccc(F)cc3)n2)C1 (centres unmarked)	11.75